Experimental data published in PubChem BioAssay AID493014 (National Center for Advancing Translational Sciences (NCATS), 2011).
The other results are listed elsewhere or left out. Further columns of the screen follow, without active or inactive calls. Most of these compounds were active or inconclusive in the main read-out, so they are no random draw. Potencies come from curve fits of mixed quality, noted in brackets.

Assay: qHTS Assay to Find Inhibitors of Chronic Active B-Cell Receptor Signaling
Settings: ABC-DLBCL IkBa-CBG/CBR reporter, luminescence ratio (green luciferase fused to IkBa over red control in TMD8 lymphoma cells), 4 h
In short: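 Concentration-response series (up to 46 uM) were applied to TMD8 dual-reporter cells for 4 h at 37C with doxycycline. Green/red ratio, after filter-overlap correction, defined %Activity; red signal alone was normalised to basal cells and zero luminescence.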

[1] = measured here: CBR red luminescence, cell number
[2] = measured here: IkBa-CBG green luminescence

| SMILES | AC50 [1] | AC50 [2] |
| --- | --- | --- |
| COc1ccc(NC(=O)c2ccccc2NC(=O)CSc2ccc(Cl)cc2)cc1 | 14.6 µM [falling, single point] | – |
| Cc1cc(C(=O)Nc2nc3c(C)cccc3s2)c(C)o1 | 1.46 µM [falling, full curve, poor fit] | – |
| N#Cc1ccccc1NC(=O)C1SC(=Nc2ccccc2)C(C(=O)Nc2ccc(Cl)cc2)=C1N (stereo unspecified) | 35.5 µM [falling, single point] | – |
| CCc1nnc(NC(=O)C2CCN(S(=O)(=O)Cc3ccccc3)CC2)s1 | 11.6 µM [rising, partial curve, poor fit] | – |
| CC(=O)C1=NN(c2ccccc2)C(c2cccs2)N1c1ccc(N(C)C)cc1 (stereo unspecified) | 32.6 µM [falling, partial curve, poor fit] | – |
| O=C(Nc1cccc(NC(=O)c2cccnc2)c1)c1cccnc1 | 6.51 µM [falling, partial curve] | – |
| Cc1ccc(C)c(NC(=O)c2ccccc2C(=O)c2ccccc2)c1 | 35.5 µM [falling, single point] | – |
| Cc1ccc(N(C(=O)CNC(=O)c2ccco2)C(C(=O)NC2CCCC2)c2cccnc2)c(C)c1 (stereo unspecified) | 6.31 µM [rising, single point] | – |
| COc1cc(NC(=O)c2cnc(N)s2)cc(C(=O)Nc2cccc(C(F)(F)F)c2)c1 | 6.31 µM [rising, single point] | – |
| CC12CCC(=O)N1C(C(=O)Nc1nc(-c3cc(F)ccc3F)cs1)CS2 (stereo unspecified) | 2.59 µM [falling, partial curve] | – |
| Cc1ccc2nc(SC(C)C(=O)NC3CCCc4ccccc43)[nH]c2c1 (stereo unspecified) | 32.6 µM [falling, single point] | – |
| CCn1nccc1C(=O)Nc1ccc(Cl)cn1 | 18.4 µM [falling, partial curve] | – |
| Cc1ccc(C(C(=O)NC2CCCCC2)N(C(=O)Cc2c[nH]c3ccccc23)c2ccccc2)o1 (stereo unspecified) | 1.26 µM [falling, full curve] | – |
| CCOC(=O)COc1ccccc1C1Nc2ccccc2C(=O)N1c1cccc(Cl)c1 (stereo unspecified) | 10 µM [falling, partial curve] | – |
| CCOC(=O)Cc1csc(NC(=O)c2ccc(C)cc2)n1 | 14.1 µM [falling, single point] | – |
| Cc1ccc(NC(=O)c2cccnc2)cc1S(=O)(=O)N1CCOCC1 | 7.31 µM [rising, partial curve, poor fit] | – |
| CCC(=O)Oc1ccc(/C(CC)=C(\CC)c2ccc(OC(=O)CC)cc2)cc1 | 0.206 µM [rising, full curve, poor fit] | – |
| Cc1ccccc1C(=O)N1CCN(c2ccc(NC(=O)c3cccs3)cc2)CC1 | 2 µM [falling, partial curve, poor fit] | – |
| Cc1ccc(NC2Sc3ccccc3NC2=O)cc1 (stereo unspecified) | 5.62 µM [falling, partial curve, poor fit] | – |
| Cc1cc(C)c(C(=O)N2CCCC(Nc3ccc(F)cc3)C2)o1 (stereo unspecified) | 2.82 µM [rising, single point] | – |
| COc1ccc(Nc2nnc(SCC(=O)Nc3ccc4[nH]c(=O)[nH]c4c3)s2)cc1 | 0.355 µM [rising, full curve, poor fit] | – |

| SMILES | AC50 [1] | AC50 [2] |
| --- | --- | --- |
| CCCCCC(=O)NC(=S)Nc1ccc(Cl)cn1 | 3.66 µM [rising, full curve, poor fit] | – |
| O=C(CSc1ccc2nnc(-c3ccc(F)cc3)n2n1)NCC1CCCO1 (stereo unspecified) | 28.2 µM [rising, single point] | – |
| Cc1nc(N)nc(-c2ccccc2O)n1 | 0.461 µM [falling, full curve, poor fit] | – |
| COc1ccc(/C=C2/C(=O)OCc3cc(OC)c(OC)cc32)c(OC)c1 | 1.03 µM [rising, partial curve, poor fit] | – |
| O=C(NCc1ccco1)C(=O)c1cn(CC(=O)N2CCCC2)c2ccccc12 | 7.08 µM [falling, full curve, poor fit] | – |
| CCOc1ccc(/C=N/N2C(C)CCCC2C)cc1OC (stereo unspecified) | 0.562 µM [rising, full curve, poor fit] | – |
| COC(=O)c1c(C)oc2ccc(N(C(=O)c3ccncc3)S(=O)(=O)c3ccc(C)cc3)cc12 | 0.058 µM [rising, full curve, poor fit] | – |
| CC(=O)Nc1ccc(/C=N/NC(=O)c2cccc(S(=O)(=O)N3CCOCC3)c2)cc1 | 0.411 µM [rising, full curve, poor fit] | – |
| CCOc1ccccc1NS(=O)(=O)c1ccc(-c2cnc(C3CC3)o2)cc1 | 2.82 µM [rising, partial curve] | 2.24 µM [falling, full curve] |
| O=C(NNC(=S)Nc1ccc(F)cc1F)c1ccco1 | 12.6 µM [falling, partial curve, poor fit] | – |
| CCCn1c(=N)n(CC(=O)c2ccc(Cl)cc2)c2ccccc21 | 1.26 µM [rising, full curve, poor fit] | – |
| COc1ccccc1-c1nc(S(=O)(=O)c2ccccc2)c(N2CCCCC2)o1 | 17.8 µM [falling, partial curve, poor fit] | – |
| Cc1ccc(NC(=O)COC(=O)CN2C(=O)COc3ccccc32)cc1 | 0.517 µM [rising, full curve, poor fit] | – |
| Cc1cccc2sc(NC(=O)C3CCCN(S(=O)(=O)c4cccc5nonc45)C3)nc12 (stereo unspecified) | 3.66 µM [falling, full curve, poor fit] | – |
| Cc1ccc(CSc2nc3ccsc3c(=O)n2Cc2ccccn2)cc1 | 16.4 µM [falling, single point] | – |
| CC(C)CNC(=O)CC(=O)NN=C1CCCC1 | 0.231 µM [rising, full curve, poor fit] | – |
| Cc1nc(C(=O)NCCO)cc2c1[nH]c1ccccc12 | 10 µM [falling, partial curve] | – |
| Clc1ccc(N=C2SCC3CCCCN23)cc1 (stereo unspecified) | 7.94 µM [rising, partial curve] | – |
| COc1ccc(/C=N/Nc2cc(C)nc(NS(=O)(=O)c3ccc(C)cc3)n2)cc1 | – | 0.0411 µM [falling, full curve, poor fit] |
| CCCc1nnc(NC(=O)c2cc3ccccc3o2)s1 | 0.562 µM [falling, full curve, poor fit] | – |
| Cc1cc(C)[n+]2n1C(=O)C(c1ccccc1)=C2[O-] | 35.5 µM [falling, partial curve, poor fit] | 17.8 µM [rising, partial curve, poor fit] |

Part of the list above in order of number of heavy atoms, high to low.

| SMILES | AC50 [1] | AC50 [2] |
| --- | --- | --- |
| COc1ccc(/C=C2/C(=O)OCc3cc(OC)c(OC)cc32)c(OC)c1 | 1.03 µM [rising, partial curve, poor fit] | – |
| CCOc1ccc(/C=N/N2C(C)CCCC2C)cc1OC (stereo unspecified) | 0.562 µM [rising, full curve, poor fit] | – |
| CCn1nccc1C(=O)Nc1ccc(Cl)cn1 | 18.4 µM [falling, partial curve] | – |

Record cards, as listed above.
`Cc1ccc(CSc2nc3ccsc3c(=O)n2Cc2ccccn2)cc1` is listed as AC50 [1]: 16.4 µM [falling, single point]
`Cc1ccc(N(C(=O)CNC(=O)c2ccco2)C(C(=O)NC2CCCC2)c2cccnc2)c(C)c1` (stereo unspecified) is listed as AC50 [1]: 6.31 µM [rising, single point]

Next records.

| SMILES | AC50 [1] | AC50 [2] |
| --- | --- | --- |
| Cc1cccc(-n2ncc3c(NC4CCCC4)ncnc32)c1 | 3.16 µM [falling, partial curve, poor fit] | – |
| CC(C)N(C(=O)Nc1ccc2nsnc2c1)C(C)C | 6.31 µM [falling, full curve, poor fit] | – |
| Cc1ccccc1CS(=O)(=O)c1ncc(Cl)c(C(=O)Nc2ccc(F)cc2)n1 | 7.08 µM [falling, full curve] | 5.62 µM [rising, full curve] |
| N#CC1=C(N)N(c2ccccc2)C(c2cccc([N+](=O)[O-])c2)C1(C#N)C#N (stereo unspecified) | 3.55 µM [rising, full curve, poor fit] | – |
| O=C(NCCN1CCOCC1)c1csc2c1CCCC2 | 29.1 µM [falling, single point] | 16.4 µM [rising, partial curve, poor fit] |
| CC(Sc1ccccc1)C(=O)N1CCN(S(=O)(=O)c2ccccc2)CC1 (stereo unspecified) | 22.4 µM [falling, single point] | – |
| O=C(Cn1cc([N+](=O)[O-])cn1)NCCc1nc2ccccc2[nH]1 | 3.55 µM [rising, full curve] | – |
| C=CCc1cccc(/C=N/NC(=O)c2ccccc2OC)c1O | 4.47 µM [falling, full curve] | – |
| CCc1ccc(Nc2nc(N)nc(CSc3nc4ccccc4s3)n2)cc1 | – | 4.61 µM [falling, partial curve, poor fit] |
| Cc1ccc(CC(=O)N2CC(C)OC(C)C2)cc1 (stereo unspecified) | 2.82 µM [falling, partial curve, poor fit] | – |
| COc1ccc(C(=O)/C=C/c2ccsc2)cc1CSCC(=O)O | 14.1 µM [falling, partial curve] | – |
| Nc1ccc(CCc2nc3ccccc3o2)cc1 | 29.1 µM [falling, single point] | – |
| C=Cc1c(C)c2cc3[nH]c(cc4nc(cc5nc(cc1[nH]2)C(C)=C5CCC(=O)O)C(CCC(=O)O)=C4C)c(C)c3C=C | 16.4 µM [rising, partial curve, poor fit] | – |
| COCCC(=O)N1CCC(Oc2ccc(C(=O)NCCc3cn[nH]c3)cc2)CC1 | 0.126 µM [rising, full curve] | – |
| CC(C)(C)C1CCc2c(sc3nc(SCC(=O)O)nc(N)c23)C1 (stereo unspecified) | 0.316 µM [falling, full curve] | – |
| Cc1[nH]c(=O)[nH]c(=O)c1S(=O)(=O)N1CCCC(C(=O)NCCc2ccc(Cl)cc2)C1 (stereo unspecified) | 0.00461 µM [falling, full curve, poor fit] | – |
| Cc1cccc(N2CCN(C(=O)CCn3c(=O)[nH]c4ccccc4c3=O)CC2)c1C | 5.62 µM [rising, full curve, poor fit] | – |
| Cn1c(=O)c2c(nc(CN3CCN(C(=O)c4ccco4)CC3)n2CCCc2ccccc2)n(C)c1=O | 1.84 µM [rising, full curve, poor fit] | – |
| O=C1OCC2=C1C(c1ccc(F)cc1)c1cc3c(cc1N2)OCCO3 (stereo unspecified) | 0.282 µM [rising, full curve, poor fit] | 0.282 µM [falling, full curve, poor fit] |
